By UniProt entry, the sequences of proteins in these tests, tags left out. Residues count along the entry.
UniProt Q13148: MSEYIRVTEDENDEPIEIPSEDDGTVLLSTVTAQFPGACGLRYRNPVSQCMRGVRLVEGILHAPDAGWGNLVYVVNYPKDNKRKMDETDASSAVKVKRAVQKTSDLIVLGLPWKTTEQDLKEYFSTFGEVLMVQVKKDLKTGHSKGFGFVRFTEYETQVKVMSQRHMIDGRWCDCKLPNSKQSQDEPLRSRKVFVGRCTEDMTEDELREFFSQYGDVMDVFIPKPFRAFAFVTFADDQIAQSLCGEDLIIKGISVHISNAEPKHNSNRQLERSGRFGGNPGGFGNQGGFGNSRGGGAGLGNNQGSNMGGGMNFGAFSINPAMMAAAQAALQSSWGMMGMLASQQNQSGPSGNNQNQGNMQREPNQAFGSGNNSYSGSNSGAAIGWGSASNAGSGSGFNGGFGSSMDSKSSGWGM
UniProt Q07021, residues 74-282: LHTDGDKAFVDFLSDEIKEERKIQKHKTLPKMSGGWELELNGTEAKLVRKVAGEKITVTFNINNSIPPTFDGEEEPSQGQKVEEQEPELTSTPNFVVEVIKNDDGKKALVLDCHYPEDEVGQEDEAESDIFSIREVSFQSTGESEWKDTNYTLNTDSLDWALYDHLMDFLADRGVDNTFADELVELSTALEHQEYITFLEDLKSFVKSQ
UniProt P67809: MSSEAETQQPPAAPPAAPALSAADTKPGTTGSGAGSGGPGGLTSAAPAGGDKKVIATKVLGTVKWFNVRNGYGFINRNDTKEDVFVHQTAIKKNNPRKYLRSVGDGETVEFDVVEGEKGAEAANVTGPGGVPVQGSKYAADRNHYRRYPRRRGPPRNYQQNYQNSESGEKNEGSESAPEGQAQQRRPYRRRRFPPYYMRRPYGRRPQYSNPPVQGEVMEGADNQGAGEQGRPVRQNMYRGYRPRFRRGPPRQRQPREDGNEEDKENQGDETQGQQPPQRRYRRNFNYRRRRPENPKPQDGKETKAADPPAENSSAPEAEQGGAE

In publication PMC12588883:

Target: TAR DNA-binding protein of 43 kD (TDP-43), endogenous (human (endogenous in SH-SY5Y and U2OS)) (UniProt Q13148)
Test: affinity purification with mass spectrometry; endogenous TDP-43 immunoprecipitated (mouse anti-TDP-43 on protein G Dynabeads) versus normal IgG from SH-SY5Y lysate under non-denaturing conditions (Pierce IP lysis buffer, 4°C, 18 h); LC-MS/MS, MaxQuant label-free; triplicate

| Substance | binding |
| --- | --- |
| C1QBP, endogenous (from UniProt Q07021 74-282) | binds |
| YBX1, endogenous (from UniProt P67809 1-324) | binds |

No constants are given. Whether binding was seen depends on the method and setting. Binding seen in cells or lysates may run through a third protein. A yes stands for co-enrichment or nearness to the bait. Other partners may have been found.
